For 2 molecules, binding results are on record in paper doi:10.1101/795674.

The chains behind the UniProt entries cited, without tags or fusion partners. Where a name states a change or a piece, a line headed by the entry shows the natural chain unless it says otherwise. A line that says so, or that is headed by a name, gives the form on record, which may keep a tag or linker. Residues count along the entry.
UniProt O14974: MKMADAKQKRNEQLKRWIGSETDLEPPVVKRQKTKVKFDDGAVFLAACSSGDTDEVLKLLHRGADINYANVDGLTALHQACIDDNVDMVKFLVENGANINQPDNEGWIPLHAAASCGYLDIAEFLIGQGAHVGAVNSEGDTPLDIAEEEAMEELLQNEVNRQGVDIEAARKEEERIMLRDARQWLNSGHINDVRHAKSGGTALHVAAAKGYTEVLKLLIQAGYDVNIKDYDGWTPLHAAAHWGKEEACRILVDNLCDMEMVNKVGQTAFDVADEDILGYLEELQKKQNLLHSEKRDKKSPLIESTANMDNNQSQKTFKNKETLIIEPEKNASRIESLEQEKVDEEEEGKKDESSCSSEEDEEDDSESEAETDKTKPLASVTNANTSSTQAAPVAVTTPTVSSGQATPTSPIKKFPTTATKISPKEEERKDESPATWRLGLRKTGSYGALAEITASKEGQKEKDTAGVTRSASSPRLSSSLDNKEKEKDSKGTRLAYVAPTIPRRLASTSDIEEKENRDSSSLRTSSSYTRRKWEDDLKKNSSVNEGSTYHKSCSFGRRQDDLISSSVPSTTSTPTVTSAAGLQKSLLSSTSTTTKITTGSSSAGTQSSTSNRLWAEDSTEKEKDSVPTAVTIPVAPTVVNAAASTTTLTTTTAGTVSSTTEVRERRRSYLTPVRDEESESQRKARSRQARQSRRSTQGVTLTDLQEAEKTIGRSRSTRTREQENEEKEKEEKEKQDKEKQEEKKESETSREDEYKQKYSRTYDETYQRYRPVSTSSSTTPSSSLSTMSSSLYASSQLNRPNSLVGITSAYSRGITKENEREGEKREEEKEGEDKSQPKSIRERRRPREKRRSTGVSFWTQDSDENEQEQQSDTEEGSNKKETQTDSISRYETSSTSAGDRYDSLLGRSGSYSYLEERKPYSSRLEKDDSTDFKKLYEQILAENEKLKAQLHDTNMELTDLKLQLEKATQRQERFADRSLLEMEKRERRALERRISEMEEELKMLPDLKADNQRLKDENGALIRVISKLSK
GST-MYPT1-F2 (297-600): residues 297-600 of O14974
GST-MYPT1-F3 (586-901): residues 586-901 of O14974
HA-MYPT1-4A (O14974, form named): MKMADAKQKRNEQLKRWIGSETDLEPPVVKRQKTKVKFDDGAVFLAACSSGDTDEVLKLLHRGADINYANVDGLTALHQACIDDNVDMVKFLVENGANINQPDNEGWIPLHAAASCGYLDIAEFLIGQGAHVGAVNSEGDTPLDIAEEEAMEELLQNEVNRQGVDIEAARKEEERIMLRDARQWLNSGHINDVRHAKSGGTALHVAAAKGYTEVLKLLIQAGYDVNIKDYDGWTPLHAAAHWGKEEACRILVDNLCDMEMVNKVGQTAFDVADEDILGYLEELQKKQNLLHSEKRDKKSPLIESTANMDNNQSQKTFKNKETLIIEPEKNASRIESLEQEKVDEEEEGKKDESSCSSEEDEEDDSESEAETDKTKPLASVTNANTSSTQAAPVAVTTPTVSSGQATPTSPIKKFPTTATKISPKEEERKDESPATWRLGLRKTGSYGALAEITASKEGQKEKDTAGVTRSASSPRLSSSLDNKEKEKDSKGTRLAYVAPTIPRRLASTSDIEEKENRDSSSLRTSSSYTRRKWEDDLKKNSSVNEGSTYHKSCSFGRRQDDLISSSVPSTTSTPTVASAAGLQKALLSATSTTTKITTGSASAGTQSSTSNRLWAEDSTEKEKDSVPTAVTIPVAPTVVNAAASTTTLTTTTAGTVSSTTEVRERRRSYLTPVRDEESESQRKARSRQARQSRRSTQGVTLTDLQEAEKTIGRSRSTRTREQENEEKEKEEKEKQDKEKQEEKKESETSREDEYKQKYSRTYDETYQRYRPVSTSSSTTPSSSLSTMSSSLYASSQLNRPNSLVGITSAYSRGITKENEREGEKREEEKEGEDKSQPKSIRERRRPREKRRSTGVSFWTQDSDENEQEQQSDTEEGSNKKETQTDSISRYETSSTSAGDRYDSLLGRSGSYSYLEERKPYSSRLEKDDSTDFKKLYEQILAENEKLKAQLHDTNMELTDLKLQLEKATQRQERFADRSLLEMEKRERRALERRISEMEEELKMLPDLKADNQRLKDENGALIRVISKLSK

No constants are given. Whether binding was seen depends on the method and setting. Binding seen in cells or lysates may run through a third protein. Some results given as binding are weak or reduced against the parent protein; the word gives no strength. For some assays here: Where a sequence is shown, tags or fusion partners need not be part of it.

For one assay, the target named is HA-MYPT1-4A (UniProt O14974). The assay can be described thus: co-IP.
In a further assay the target is HA-MYPT1-wild type (UniProt O14974). In words: co-IP.
The next assay has as its target GST-MYPT1-FL (UniProt O14974). In words: pull-down.
The target of a further assay is GST-MYPT1-F2 (297-600) (UniProt O14974). The assay can be described thus: pull-down.
The target in the next assay is GST-MYPT1-F3 (586-901) (UniProt O14974). The assay can be described thus: pull-down.

Take “Flag-PLK1 (from UniProt P53350 1-603) (enzyme)”: the binding result with HA-MYPT1-4A and in the assay with HA-MYPT1-wild type was “binds” throughout.

B1: Myc-OGT (enzyme, UniProt O15294 1-1046)
chain: MASSVGNVADSTEPTKRMLSFQGLAELAHREYQAGDFEAAERHCMQLWRQEPDNTGVLLLLSSIHFQCRRLDRSAHFSTLAIKQNPLLAEAYSNLGNVYKERGQLQEAIEHYRHALRLKPDFIDGYINLAAALVAAGDMEGAVQAYVSALQYNPDLYCVRSDLGNLLKALGRLEEAKACYLKAIETQPNFAVAWSNLGCVFNAQGEIWLAIHHFEKAVTLDPNFLDAYINLGNVLKEARIFDRAVAAYLRALSLSPNHAVVHGNLACVYYEQGLIDLAIDTYRRAIELQPHFPDAYCNLANALKEKGSVAEAEDCYNTALRLCPTHADSLNNLANIKREQGNIEEAVRLYRKALEVFPEFAAAHSNLASVLQQQGKLQEALMHYKEAIRISPTFADAYSNMGNTLKEMQDVQGALQCYTRAIQINPAFADAHSNLASIHKDSGNIPEAIASYRTALKLKPDFPDAYCNLAHCLQIVCDWTDYDERMKKLVSIVADQLEKNRLPSVHPHHSMLYPLSHGFRKAIAERHGNLCLDKINVLHKPPYEHPKDLKLSDGRLRVGYVSSDFGNHPTSHLMQSIPGMHNPDKFEVFCYALSPDDGTNFRVKVMAEANHFIDLSQIPCNGKAADRIHQDGIHILVNMNGYTKGARNELFALRPAPIQAMWLGYPGTSGALFMDYIITDQETSPAEVAEQYSEKLAYMPHTFFIGDHANMFPHLKKKAVIDFKSNGHIYDNRIVLNGIDLKAFLDSLPDVKIVKMKCPDGGDNADSSNTALNMPVIPMNTIAEAVIEMINRGQIQITINGFSISNGLATTQINNKAATGEEVPRTIIVTTRSQYGLPEDAIVYCNFNQLYKIDPSTLQMWANILKRVPNSVLWLLRFPAVGEPNIQQYAQNMGLPQNRIIFSPVAPKEEHVRRGQLADVCLDTPLCNGHTTGMDVLWAGTPMVTMPGETLASRVAASQLTCLGCLELIAKNRQEYEDIAVKLGTDLEYLKKVRGKVWKQRISSPLFNTKQYTMELERLYLQMWEHYAAGNKPDHMIKPVEVTESA
In the case of B1, the binding result with GST-MYPT1-FL, with GST-MYPT1-F2 (297-600) and with GST-MYPT1-F3 (586-901) was “binds” throughout.
